Results: paper PMC9894557, “The opportunistic pathogen Pseudomonas aeruginosa exploits bacterial biotin synthesis pathway to benefit its infectivity” (PLOS Pathogens, 2023)
These are yes or no findings as the source states them, for the method shown.

Biological target: Pseudomonas aeruginosa BioH (PA0502), wild type (Pseudomonas aeruginosa PAO1) (UniProt Q9I616)
Assay: SEC; gel filtration on a Superdex 75 column; Streptococcus suis FakB2 (~33 kDa, known monomer) as size control; both purified

Pseudomonas aeruginosa BioH (PA0502), wild type (from UniProt Q9I616 1-240) (enzyme)
binding: no binding
